Reference: paper PMC11994786

The chains behind the UniProt entries cited, without tags or fusion partners.
UniProt P69566: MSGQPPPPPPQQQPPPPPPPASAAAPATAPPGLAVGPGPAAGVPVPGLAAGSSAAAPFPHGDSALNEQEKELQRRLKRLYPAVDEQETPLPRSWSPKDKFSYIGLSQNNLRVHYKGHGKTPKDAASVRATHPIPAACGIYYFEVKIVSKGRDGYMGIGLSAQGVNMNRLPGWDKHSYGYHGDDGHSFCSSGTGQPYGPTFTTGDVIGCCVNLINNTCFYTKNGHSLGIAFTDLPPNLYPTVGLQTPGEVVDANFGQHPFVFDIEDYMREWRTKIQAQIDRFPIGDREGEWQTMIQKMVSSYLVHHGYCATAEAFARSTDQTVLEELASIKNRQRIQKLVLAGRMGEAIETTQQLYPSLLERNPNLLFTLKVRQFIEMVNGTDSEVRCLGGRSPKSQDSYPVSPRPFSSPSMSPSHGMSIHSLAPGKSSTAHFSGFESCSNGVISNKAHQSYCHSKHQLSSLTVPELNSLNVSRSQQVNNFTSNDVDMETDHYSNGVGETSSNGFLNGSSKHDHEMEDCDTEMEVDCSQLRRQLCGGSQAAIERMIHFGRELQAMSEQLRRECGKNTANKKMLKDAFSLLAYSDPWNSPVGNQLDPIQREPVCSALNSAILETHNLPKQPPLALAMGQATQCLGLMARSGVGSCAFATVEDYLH

Target: RanBP9-3xHA (Ran Binding Protein 9 fused to three copies of the HA tag) (mouse) (UniProt P69566)
Test: affinity purification with mass spectrometry; anti-HA magnetic beads on 1 mg pre-cleared whole lung lysate of LysMBP9X mice, overnight at 4 °C, on-bead trypsin digestion, LC-MS/MS; hits significant (p ≤ 0.05) against HA-IP from WT mice and Ig-IPs

B1: Chdh (protein, UniProt Q8BJ64 35-596)
chain: VASVGKDEYTFVVVGAGSAGCVLASRLTEDPNHRVLLLEAGPKDLLMGSKRLQWKIHMPAALVSNLCDDKYNWYYHTEPQPGMDSRVLYWPRGRVWGGSSSLNAMVYIRGHAEDYNRWHREGAEGWDYAHCLPYFRKAQRHELGANMYRGGDGPLHVSRGKTNHPLHQAFLQAARQAGYPFTEDMNGFQQEGFGWMDMTVHQGKRWSTACAYLHPVLSRPNLRAEVQTLVSRVLFEGTRAVGVEYIKDGQRHKAYVSREVILSGGAINSPQLLMLSGVGNADDLRKLDIPVVCHLPGVGQNLQDHLEVYVQQACTQPITLHSAQKPLRKVCIGLEWLWSYTGDGATAHLETGGFIRSRPGVPHPDIQFHFLPSQVIDHGRKPTQQEAYQVHVGTMRATSVGWLKLRSANPRDHPVIHPNYLSTETDVEDFRQCVRLSREIFAQEALAPFRGKELQPGSHVQSDKEIDAFVRAKADSAYHPSCTCKMGRSSDPTAVVDAQTKVIGVENLRVVDASIMPSVVSGNLNAPTVMIAEKAADIIKGHPALEDKNVPVYKPQTLDTQR
- binding: binds

B2: Rb1 (Retinoblastoma-associated protein 1) (protein, UniProt P13405 1-921)
chain: MPPKAPRRAAAAEPPPPPPPPPREDDPAQDSGPEELPLARLEFEEIEEPEFIALCQKLKVPDHVRERAWLTWEKVSSVDGILEGYIQKKKELWGICIFIAAVDLDEMPFTFTELQKSIETSVYKFFDLLKEIDTSTKVDNAMSRLLKKYNVLCALYSKLERTCELIYLTQPSSALSTEINSMLVLKISWITFLLAKGEVLQMEDDLVISFQLMLCVVDYFIKFSPPALLREPYKTAAIPINGSPRTPRRGQNRSARIAKQLENDTRIIEVLCKEHECNIDEVKNVYFKNFIPFINSLGIVSSNGLPEVESLSKRYEEVYLKNKDLDARLFLDHDKTLQTDPIDSFETERTPRKNNPDEEANVVTPHTPVRTVMNTIQQLMVILNSASDQPSENLISYFNNCTVNPKENILKRVKDVGHIFKEKFANAVGQGCVDIGVQRYKLGVRLYYRVMESMLKSEEERLSIQNFSKLLNDNIFHMSLLACALEVVMATYSRSTLQHLDSGTDLSFPWILNVLNLKAFDFYKVIESFIKVEANLTREMIKHLERCEHRIMESLAWLSDSPLFDLIKQSKDGEGPDNLEPACPLSLPLQGNHTAADMYLSPLRSPKKRTSTTRVNSAANTETQAASAFHTQKPLKSTSLALFYKKVYRLAYLRLNTLCARLLSDHPELEHIIWTLFQHTLQNEYELMRDRHLDQIMMCSMYGICKVKNIDLKFKIIVTAYKDLPHAAQETFKRVLIREEEFDSIIVFYNSVFMQRLKTNILQYASTRPPTLSPIPHIPRSPYKFSSSPLRIPGGNIYISPLKSPYKISEGLPTPTKMTPRSRILVSIGESFGTSEKFQKINQMVCNSDRVLKRSAEGGNPPKPLKKLRFDIEGADEADGSKHLPAESKFQQKLAEMTSTRTRMQKQRMNESKDVSNKEEK
- binding: binds

B3: Ndufa8 (protein, UniProt Q9DCJ5 1-172)
chain: MPGIVELPTLEELKVEEVKVSSAVLKAAAHHYGAQCDKTNKEFMLCRWEEKDPRRCLKEGKLVNGCALNFFRQIKSHCAEPFTEYWTCLDYSNMQLFRHCRQQQAKFDQCVLDKLGWVRPDLGQLSKVTKVKTDRPLPENPYHSRARPEPNPVIEGDLKPAKHGTRFFFWTV
- binding: binds

B4: Uqcrc2 (protein, UniProt Q9DB77 15-453)
chain: SLKVAPKVKTSAAPGGVPLQPQDLEFTKLPNGLVIASLENYAPLSRIGLFVKAGSRYEDSNNLGTSHLLRLASSLTTKGASSFKITRGIEAVGGKLSVTATRENMAYTVEGIRSDIEILMEFLLNVTTAPEFRRWEVAALRSQLKIDKAVAFQNSQTRIIENLHDVAYKNALANPLYCPDYRMGKITSEELHYFVQNHFTSARMALVGLGVSHSVLKQVAEQFLNMRGGLGLAGAKAKYRGGEIREQNGDNLVHAAIVAESAAIGNAEANAFSVLQHLLGAGPHIKRGNNTTSLLSQSVAKGSHQPFDVSAFNASYSDSGLFGIYTISQAAAAGEVINAAYNQVKAVAQGNLSSADVQAAKNKLKAGYLMSVETSEGFLSEIGSQALAAGSYMPPSTVLQQIDSVADADVVKAAKKFVSGKKSMAASGNLGHTPFLDEL
- binding: binds

B5: Idh3g (protein, UniProt P70404 40-393)
chain: SSQQTIPPSAKYGGRHTVTMIPGDGIGPELMLHVKSVFRHACVPVDFEEVHVSSNADEEDIRNAIMAIRRNRVALKGNIETNHNLPPSHKSRNNILRTSLDLYANVIHCKSLPGVVTRHKDIDILIVRENTEGEYSSLEHESVAGVVESLKIITKAKSLRIAEYAFKLAQESGRKKVTAVHKANIMKLGDGLFLQCCREVAAHYPQITFDSMIVDNTTMQLVSRPQQFDVMVMPNLYGNIVNNVCAGLVGGPGLVAGANYGHVYAVFETATRNTGKSIANKNIANPTATLLASCMMLDHLKLHSYATSIRKAVLASMDNENMHTPDIGGQGTTSQAIQDIIRHIRIINGRAVEA
- binding: binds

B6: Slc25a25 (protein, UniProt A2ASZ8 1-469)
chain: MLCLCLYVPIAGAAQTEFQYFESKGLPAELKSIFKLSVFIPSQEFSTYRQWKQKIVQAGDKDLDGQLDFEEFVHYLQDHEKKLRLVFKSLDKKNDGRIDAQEIMQSLRDLGVKISEQQAEKILKSMDKNGTMTIDWNEWRDYHLLHPVENIPEIILYWKHSTIFDVGENLTVPDEFTVEERQTGMWWRHLVAGGGAGAVSRTCTAPLDRLKVLMQVHASRSNNMCIVGGFTQMIREGGAKSLWRGNGINVLKIAPESAIKFMAYEQMKRLVGSDQETLRIHERLVAGSLAGAIAQSSIYPMEVLKTRMALRKTGQYSGMLDCARRILAKEGVAAFYKGYIPNMLGIIPYAGIDLAVYETLKNTWLQRYAVNSADPGVFVLLACGTISSTCGQLASYPLALVRTRMQAQASIEGAPEVTMSSLFKQILRTEGAFGLYRGLAPNFMKVIPAVSISYVVYENLKITLGVQSR
- binding: binds

B7: Kansl1 (Kat8 regulatory NSL complex subunit 1) (protein, UniProt Q80TG1 1-1036)
chain: MAAMAPALTDAAAEAHHIRFKLAPPSSTLSPGSAENNGNANILISANGTKRKAIAAEDPSLDFRNNPTKEDLGKLQPLVASYLCSDVTSVPAKESLKLQGVFSKQTVLKSHPLLSQSYELRAELLGRQPVLEFSLENLRTMNTSGQTALPQAPVNGLAKKLTKSSTHSDHDNSSSLNGGKRSLTSSSLQGGEVGGPDSGNLKGGMTNCTLPHRSLDIQHTTLYSNNSTANKSSVNSMDQPALQGSSRLSPSTDSSSNLTNVKLEVKKSPLSSILFSALDSDTRITALLRRQADIEIRARRLQKRLQVVQAKQVERHLQHQLGGFLETTLSKLPNLESLRSRSQLMLTRKAEAALRKAASESATSEGLSNFLKSDSISEELERFTASGIANLRCSEQAFDSDVTDSSSGGESDIEEEELTRADPEQCHVPLKRRSEWRWAADRAAIVSRWNWLQAHVSDLEYRIRQQTDIYKQIRANKGLIVLGEAPFPDHTTDLLSLSSEVKTDHGRDKLIESVSQPSENHGILVSNITESLSTKSCGAPRPVNGVVNSLQPVLADQVPGDSSDAEEQLHKKQRLNLVSSSDGTCVAARTRPVLTCKKRRLVRPSSIVPLSKKVHRNVRSGCDVNPSCALCGSGSVNTMPPEIHYEAPLLERLSQLDSCVHPVLAFPDDVPTSLHFQSMLKSQWQNKPFDKIKPTKKFSLKHRATMPCSLSDPVRKDRHKLVNSFLTTAMLKHHTDMSSPSYLTATHHPPHSPLVRQLSTSSDTSTPTSSGSQVAASTSQPVRRRRGESSFDINNIVIPMSVAATTRVEKLQYKEILTPSWREVDVQSLKGSPDEENEEIEDLSDAAFAALHAKCEEMERARWLWTTSVPPQRRGSRSYRSSDGRTTPQLGSANPSTPQPASPDVSSSHSLSEFSHGQSPRSPISPELHSAPLTPVARDSLRHLASEDTRCSTPELGLDEQSVQPWERRTFPLAYSPQAECEEQLDAQDTAARCTRRTSGSKTGREAEVAPTSPPVVPLKSRHLAATVTAQRPAHR
- binding: binds

B8: Setdb2 (SET domain bifurcated histone lysine methyltransferase 2) (protein, UniProt Q8C267 1-713)
chain: MEEKNGDAKTFWMELQDDGKVDLMFEKTQNVLHSLKQKIKDGSATNGDYVQAMNLVNEATLSNTQTLEKGMFITYSNPEVNTHRSNHTPVTQSEQENKSSAVPSASCDNSCPKGCTIPSPGKKVFLPVKNKADNLVKKEAPLHISFHRHICSRTCLMETPLSLKGENPLQLPIRCHFQRRHAKTNSHSSALHVNYKTPCGRNLRNMEEVFHYLLETECNFLFTDNFSFNTYVQLTRNHPKQNEVVSDVDISNGVESVSIPFCNEIDNSKLPRFKYRNTVWPRIYHLNFSNMFSDSCDCSEGCIDIKKCACLQLTAKNAKACPLSSDGECAGYKYKRLQRLIPTGIYECNLLCKCNKQMCQNRVIQHGVRVRLQVFKSEKKGWGVRCLDDIDKGTFVCIYSGRLLRRATPEKTNIGENGREQQHIVKNSFSKKRKLEVVCSDCDAHCDSPKAEDCPPKLSGDLKEPAVEMNHRNISRTQHHSVIRRTKSKTTVFHYSEKNMGFVCSDSAAPEDKNGFKPAQEHVNSEARRAHEDLSSNPAGDSEDTQLTESDVIDITASREDSAPAYRCKHATIVDRKDTKQVLEVPGKKSQEEEPAASQSQQALCDEELPSERTKIPSASLMQLSKESLFLLDASKEGNVGRFLNHSCCPNLWVQNVFVETHDRNFPLVAFFTNRYVKARTELTWDYGYEAGATPAKEILCQCGFNKCRKKLI
- binding: binds

B9: Med30 (Mediator 30) (protein, UniProt Q9CQI9 1-178)
chain: MSTPPLAPTGMASGPFGGPQAQQAAREVNTATLCRIGQETVQDIVYRTMEIFQLLRNMQLPNGVTYHTGTYQDRLTKLQDHLRQLSILFRKLRLVYDKCNENCGGMDPIPVEQLIPYVDEDGSKNDDRAGPPRFASEERREIVEVNKKLKQKNQQLKQIMDQLRNLIWDINAMLAMRN
- binding: binds

B10: Gtf2e2 (General transcription factor 2e2) (protein, UniProt Q9D902 1-292)
chain: MDPSLLRDRELFKKRALSTPVVEKRAVPSESPSSSSSKKKKAKVEHGGSSGSKQNSDHNNGSFNLKALSGSSGYKFGVLAKIVNYMKTRHQRGDTHPLTLEEILDETQHLDIGLKQKQWLMTEALVNNPKIEVVDGKYAFKPKYNLKDKKALLRLLDNHDQRGLGGILLEDIEEGLPNSQKAVKALGDQILFVSRPDKKKILFFNDKSCQFSVDEEFQKLWRSVTVDSMDEEKIEEYLKRQGISSMQESGPKKVASIQRRKKPASQKKRRFKTHNEHLAGVLKDYSDITPGK
- binding: binds

No constants are given. Whether binding was seen depends on the method and setting. In cells and extracts the contact can be indirect. These calls come from enrichment with a bait or labelling near it, and not all partners need be listed. Where a sequence is shown, tags or fusion partners need not be part of it.
